{"source": "PubChem BioAssay AID1508597 (Cure First, 2020)", "purpose": "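Genes whose silencing sensitises or protects ovarian cancer cells against rucaparib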 (primary screen)", "cells": "human ovarian carcinoma lines grown from tumours: OCI-P5x (papillary serous) and OCI-C5x (clear cell)", "reagents": "siRNA pool against human genes, 1.25 pmol siRNA per well", "timing": "72 h or 96 h, depending on the cell culture", "conditions": "rucaparib 20 µM (about IC30) or vehicle, present until read-out", "measurement": "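Luminescent ATP-based viability assay read 72 or 96 h after transfection, depending on culture, given as normalised percent viability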", "scale": "viability, normalised: higher = more viable cells remaining", "hit rule": "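Active when normalised viability falls below 80 percent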", "meaning of the calls": "active = viability under 80%; inactive = viability 80% or more", "note": "Shown is an unselected part of about 2,100 reagents tested. 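Calls flag viability under 80% in either arm, not effects specific to rucaparib; the reference for percent is not stated.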 A number with no mark means an inactive call. Some reagents were tested in more than one well and are listed for each. Reagent sequences are not shown. Not given: the 100% reference."}
{"gene": "CENPV", "rucaparib or vehicle": "Rucaparib", "cell line": "OCI-C5x (clear cell)", "technical replicate": "1", "viability, normalised (%)": "42.1 (active)"}
{"gene": "CENPV", "rucaparib or vehicle": "Rucaparib", "cell line": "OCI-C5x (clear cell)", "technical replicate": "2", "viability, normalised (%)": "41.8 (active)"}
{"gene": "CENPV", "rucaparib or vehicle": "Rucaparib", "cell line": "OCI-C5x (clear cell)", "technical replicate": "3", "viability, normalised (%)": "37 (active)"}
{"gene": "CENPV", "rucaparib or vehicle": "Rucaparib", "cell line": "OCI-P5x (serous)", "technical replicate": "1", "viability, normalised (%)": "65.8 (active)"}
{"gene": "CENPV", "rucaparib or vehicle": "Rucaparib", "cell line": "OCI-P5x (serous)", "technical replicate": "2", "viability, normalised (%)": "59 (active)"}
{"gene": "CENPV", "rucaparib or vehicle": "Rucaparib", "cell line": "OCI-P5x (serous)", "technical replicate": "3", "viability, normalised (%)": "60.9 (active)"}
{"gene": "CENPV", "rucaparib or vehicle": "Vehicle", "cell line": "OCI-C5x (clear cell)", "technical replicate": "1", "viability, normalised (%)": "22.5 (active)"}
{"gene": "CENPV", "rucaparib or vehicle": "Vehicle", "cell line": "OCI-C5x (clear cell)", "technical replicate": "2", "viability, normalised (%)": "30 (active)"}
{"gene": "CENPV", "rucaparib or vehicle": "Vehicle", "cell line": "OCI-C5x (clear cell)", "technical replicate": "3", "viability, normalised (%)": "30.1 (active)"}
{"gene": "CENPV", "rucaparib or vehicle": "Vehicle", "cell line": "OCI-P5x (serous)", "technical replicate": "1", "viability, normalised (%)": 95.8}
{"gene": "CENPV", "rucaparib or vehicle": "Vehicle", "cell line": "OCI-P5x (serous)", "technical replicate": "2", "viability, normalised (%)": "59.2 (active)"}
{"gene": "CENPV", "rucaparib or vehicle": "Vehicle", "cell line": "OCI-P5x (serous)", "technical replicate": "3", "viability, normalised (%)": 99.9}
{"gene": "DCLRE1C", "rucaparib or vehicle": "Rucaparib", "cell line": "OCI-C5x (clear cell)", "technical replicate": "1", "viability, normalised (%)": "48.4 (active)"}
{"gene": "DCLRE1C", "rucaparib or vehicle": "Rucaparib", "cell line": "OCI-C5x (clear cell)", "technical replicate": "1", "viability, normalised (%)": "35.8 (active)"}
{"gene": "DCLRE1C", "rucaparib or vehicle": "Rucaparib", "cell line": "OCI-C5x (clear cell)", "technical replicate": "2", "viability, normalised (%)": "23 (active)"}
{"gene": "DCLRE1C", "rucaparib or vehicle": "Rucaparib", "cell line": "OCI-C5x (clear cell)", "technical replicate": "2", "viability, normalised (%)": "46.1 (active)"}
{"gene": "DCLRE1C", "rucaparib or vehicle": "Rucaparib", "cell line": "OCI-C5x (clear cell)", "technical replicate": "3", "viability, normalised (%)": "49.5 (active)"}
{"gene": "DCLRE1C", "rucaparib or vehicle": "Rucaparib", "cell line": "OCI-C5x (clear cell)", "technical replicate": "3", "viability, normalised (%)": "23.1 (active)"}
{"gene": "DCLRE1C", "rucaparib or vehicle": "Rucaparib", "cell line": "OCI-P5x (serous)", "technical replicate": "1", "viability, normalised (%)": "63.6 (active)"}
{"gene": "DCLRE1C", "rucaparib or vehicle": "Rucaparib", "cell line": "OCI-P5x (serous)", "technical replicate": "1", "viability, normalised (%)": 99.9}
{"gene": "DCLRE1C", "rucaparib or vehicle": "Rucaparib", "cell line": "OCI-P5x (serous)", "technical replicate": "2", "viability, normalised (%)": "79.1 (active)"}
{"gene": "DCLRE1C", "rucaparib or vehicle": "Rucaparib", "cell line": "OCI-P5x (serous)", "technical replicate": "2", "viability, normalised (%)": "58.1 (active)"}
{"gene": "DCLRE1C", "rucaparib or vehicle": "Rucaparib", "cell line": "OCI-P5x (serous)", "technical replicate": "3", "viability, normalised (%)": "72.1 (active)"}
{"gene": "DCLRE1C", "rucaparib or vehicle": "Rucaparib", "cell line": "OCI-P5x (serous)", "technical replicate": "3", "viability, normalised (%)": "56.7 (active)"}
{"gene": "DCLRE1C", "rucaparib or vehicle": "Vehicle", "cell line": "OCI-C5x (clear cell)", "technical replicate": "1", "viability, normalised (%)": "45.2 (active)"}
{"gene": "DCLRE1C", "rucaparib or vehicle": "Vehicle", "cell line": "OCI-C5x (clear cell)", "technical replicate": "1", "viability, normalised (%)": "17 (active)"}
{"gene": "DCLRE1C", "rucaparib or vehicle": "Vehicle", "cell line": "OCI-C5x (clear cell)", "technical replicate": "2", "viability, normalised (%)": "56.3 (active)"}
{"gene": "DCLRE1C", "rucaparib or vehicle": "Vehicle", "cell line": "OCI-C5x (clear cell)", "technical replicate": "2", "viability, normalised (%)": "16 (active)"}
{"gene": "DCLRE1C", "rucaparib or vehicle": "Vehicle", "cell line": "OCI-C5x (clear cell)", "technical replicate": "3", "viability, normalised (%)": "18.4 (active)"}
{"gene": "DCLRE1C", "rucaparib or vehicle": "Vehicle", "cell line": "OCI-C5x (clear cell)", "technical replicate": "3", "viability, normalised (%)": "40.4 (active)"}
{"gene": "DCLRE1C", "rucaparib or vehicle": "Vehicle", "cell line": "OCI-P5x (serous)", "technical replicate": "1", "viability, normalised (%)": "55.8 (active)"}
{"gene": "DCLRE1C", "rucaparib or vehicle": "Vehicle", "cell line": "OCI-P5x (serous)", "technical replicate": "1", "viability, normalised (%)": "50.2 (active)"}
{"gene": "DCLRE1C", "rucaparib or vehicle": "Vehicle", "cell line": "OCI-P5x (serous)", "technical replicate": "2", "viability, normalised (%)": "60.5 (active)"}
{"gene": "DCLRE1C", "rucaparib or vehicle": "Vehicle", "cell line": "OCI-P5x (serous)", "technical replicate": "2", "viability, normalised (%)": "55.5 (active)"}
{"gene": "DCLRE1C", "rucaparib or vehicle": "Vehicle", "cell line": "OCI-P5x (serous)", "technical replicate": "3", "viability, normalised (%)": "52.4 (active)"}
{"gene": "DCLRE1C", "rucaparib or vehicle": "Vehicle", "cell line": "OCI-P5x (serous)", "technical replicate": "3", "viability, normalised (%)": "56 (active)"}
{"gene": "CDK15", "rucaparib or vehicle": "Rucaparib", "cell line": "OCI-C5x (clear cell)", "technical replicate": "1", "viability, normalised (%)": "44.4 (active)"}
{"gene": "CDK15", "rucaparib or vehicle": "Rucaparib", "cell line": "OCI-C5x (clear cell)", "technical replicate": "2", "viability, normalised (%)": "74.3 (active)"}
{"gene": "CDK15", "rucaparib or vehicle": "Rucaparib", "cell line": "OCI-C5x (clear cell)", "technical replicate": "3", "viability, normalised (%)": "43.8 (active)"}
{"gene": "CDK15", "rucaparib or vehicle": "Rucaparib", "cell line": "OCI-P5x (serous)", "technical replicate": "1", "viability, normalised (%)": 94.9}
{"gene": "CDK15", "rucaparib or vehicle": "Rucaparib", "cell line": "OCI-P5x (serous)", "technical replicate": "2", "viability, normalised (%)": "45.7 (active)"}
{"gene": "CDK15", "rucaparib or vehicle": "Rucaparib", "cell line": "OCI-P5x (serous)", "technical replicate": "3", "viability, normalised (%)": 93.3}
{"gene": "CDK15", "rucaparib or vehicle": "Vehicle", "cell line": "OCI-C5x (clear cell)", "technical replicate": "1", "viability, normalised (%)": "63.9 (active)"}
{"gene": "CDK15", "rucaparib or vehicle": "Vehicle", "cell line": "OCI-C5x (clear cell)", "technical replicate": "2", "viability, normalised (%)": "64.1 (active)"}
{"gene": "CDK15", "rucaparib or vehicle": "Vehicle", "cell line": "OCI-C5x (clear cell)", "technical replicate": "3", "viability, normalised (%)": 80.5}
{"gene": "CDK15", "rucaparib or vehicle": "Vehicle", "cell line": "OCI-P5x (serous)", "technical replicate": "1", "viability, normalised (%)": 104}
{"gene": "CDK15", "rucaparib or vehicle": "Vehicle", "cell line": "OCI-P5x (serous)", "technical replicate": "2", "viability, normalised (%)": 94.6}
{"gene": "CDK15", "rucaparib or vehicle": "Vehicle", "cell line": "OCI-P5x (serous)", "technical replicate": "3", "viability, normalised (%)": 91}
